These are yes or no findings as the source states them, for the method shown. In cells and extracts the contact can be indirect. Some results given as binding are weak or reduced against the parent protein; the word gives no strength.
Key:
Flag-PKCδ = Flag-PKCδ (UniProt Q05655); assay: co-IP; HEK 293T cells transfected with Myc-IL-32β, HA-VHL and Flag-PKCδ together; lysate immunoprecipitated with anti-Flag antibody, immunoblot
HA-VHL [1] = target: HA-VHL (UniProt P40337); assay: co-IP; HEK 293T cells transfected with Myc-IL-32β, HA-VHL and Flag-PKCδ together, normoxia or hypoxia chamber for 24 h; lysate immunoprecipitated with anti-HA antibody, immunoblot
HA-VHL [2] = target: HA-VHL (UniProt P40337); assay: co-IP; OVCAR8 cells transfected with Myc-IL-32β, HA-VHL and Flag-PKCδ together, untreated or treated with 150 μM CoCl2 for 24 h; lysate immunoprecipitated with anti-HA antibody, immunoblot

Sequences of proteins named here, by UniProt entry; tags and fusion partners are left off. A change or cut given only in a name is not applied to a line headed by its entry.
UniProt Q05655: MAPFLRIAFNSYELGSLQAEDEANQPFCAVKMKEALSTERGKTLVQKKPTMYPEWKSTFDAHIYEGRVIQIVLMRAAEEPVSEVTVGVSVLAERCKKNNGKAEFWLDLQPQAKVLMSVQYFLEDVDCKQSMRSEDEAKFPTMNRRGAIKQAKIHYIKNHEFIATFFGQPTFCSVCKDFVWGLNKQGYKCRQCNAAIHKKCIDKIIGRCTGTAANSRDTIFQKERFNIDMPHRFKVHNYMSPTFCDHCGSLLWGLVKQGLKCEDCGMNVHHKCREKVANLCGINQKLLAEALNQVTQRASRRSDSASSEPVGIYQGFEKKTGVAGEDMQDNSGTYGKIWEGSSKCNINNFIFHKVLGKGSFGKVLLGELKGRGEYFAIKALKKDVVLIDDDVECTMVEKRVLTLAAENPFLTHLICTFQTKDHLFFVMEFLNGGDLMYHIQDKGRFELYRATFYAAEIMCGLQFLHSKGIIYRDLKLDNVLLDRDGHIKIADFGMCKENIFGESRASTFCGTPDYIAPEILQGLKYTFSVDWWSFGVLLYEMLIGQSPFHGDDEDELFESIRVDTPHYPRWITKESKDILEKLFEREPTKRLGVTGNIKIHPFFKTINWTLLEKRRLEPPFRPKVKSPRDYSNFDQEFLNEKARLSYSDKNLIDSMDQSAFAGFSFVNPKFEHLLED
UniProt P40337: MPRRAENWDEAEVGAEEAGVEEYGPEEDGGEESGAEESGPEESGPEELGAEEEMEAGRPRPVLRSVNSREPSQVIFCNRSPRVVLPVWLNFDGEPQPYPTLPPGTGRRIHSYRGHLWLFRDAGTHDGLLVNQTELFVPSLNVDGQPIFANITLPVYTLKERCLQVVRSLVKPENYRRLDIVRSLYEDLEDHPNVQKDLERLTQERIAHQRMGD

| binding (Flag-PKCδ) | binding (HA-VHL [1]) | binding (HA-VHL [2]) | Substance |
| --- | --- | --- | --- |
| binds | – | – | HA-VHL (from UniProt P40337 1-213) |
| – | binds | binds | Flag-PKCδ (from UniProt Q05655 1-676) (enzyme) |
